The other results are listed elsewhere or left out.
How the values were obtained:
Assay in all cases: log2 fold change, soluble protein after heating vs DMSO (PISA); higher = thermal stabilisation; K562 cells, 10 uM, 30 min; active = over 0.2 and 3.5 SD of the protein, either way, in both replicates (recomputed)
bafetinib = compound: Cc1ccc(NC(=O)c2ccc(CN3CC[C@H](N(C)C)C3)c(C(F)(F)F)c2)cc1Nc1nccc(-c2cncnc2)n1 [bafetinib]
Outline: (§1)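 K562 cells (2×10^6 cells/mL) were treated with 10 μM compound for 30 min, and aliquots were heated for 3 min over 48°C-58°C. Pooled aliquots were extracted in PBS with 0.5% NP-40 at 4°C, and the supernatant after 21,000xg for 90 min was measured by TMTpro 16plex LC-MS/MS with channel sums equalised. Reported thermal stability, relative to control samples and from duplicates, is a log2 fold change.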

Amino acid sequences for entries named in this document (tags omitted). A change or cut given only in a name is not applied to a line headed by its entry.
UniProt Q9UJ70, whole entry, looked up: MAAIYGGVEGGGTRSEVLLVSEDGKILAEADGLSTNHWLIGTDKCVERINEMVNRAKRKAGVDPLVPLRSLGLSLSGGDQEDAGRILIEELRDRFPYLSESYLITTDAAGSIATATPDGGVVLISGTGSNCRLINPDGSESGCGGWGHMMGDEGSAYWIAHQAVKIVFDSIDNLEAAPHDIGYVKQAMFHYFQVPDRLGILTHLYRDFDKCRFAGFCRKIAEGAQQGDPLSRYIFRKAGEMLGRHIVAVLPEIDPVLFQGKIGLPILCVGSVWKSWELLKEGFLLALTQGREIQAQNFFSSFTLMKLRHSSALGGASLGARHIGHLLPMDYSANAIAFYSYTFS
UniProt Q14CX7, whole entry, looked up: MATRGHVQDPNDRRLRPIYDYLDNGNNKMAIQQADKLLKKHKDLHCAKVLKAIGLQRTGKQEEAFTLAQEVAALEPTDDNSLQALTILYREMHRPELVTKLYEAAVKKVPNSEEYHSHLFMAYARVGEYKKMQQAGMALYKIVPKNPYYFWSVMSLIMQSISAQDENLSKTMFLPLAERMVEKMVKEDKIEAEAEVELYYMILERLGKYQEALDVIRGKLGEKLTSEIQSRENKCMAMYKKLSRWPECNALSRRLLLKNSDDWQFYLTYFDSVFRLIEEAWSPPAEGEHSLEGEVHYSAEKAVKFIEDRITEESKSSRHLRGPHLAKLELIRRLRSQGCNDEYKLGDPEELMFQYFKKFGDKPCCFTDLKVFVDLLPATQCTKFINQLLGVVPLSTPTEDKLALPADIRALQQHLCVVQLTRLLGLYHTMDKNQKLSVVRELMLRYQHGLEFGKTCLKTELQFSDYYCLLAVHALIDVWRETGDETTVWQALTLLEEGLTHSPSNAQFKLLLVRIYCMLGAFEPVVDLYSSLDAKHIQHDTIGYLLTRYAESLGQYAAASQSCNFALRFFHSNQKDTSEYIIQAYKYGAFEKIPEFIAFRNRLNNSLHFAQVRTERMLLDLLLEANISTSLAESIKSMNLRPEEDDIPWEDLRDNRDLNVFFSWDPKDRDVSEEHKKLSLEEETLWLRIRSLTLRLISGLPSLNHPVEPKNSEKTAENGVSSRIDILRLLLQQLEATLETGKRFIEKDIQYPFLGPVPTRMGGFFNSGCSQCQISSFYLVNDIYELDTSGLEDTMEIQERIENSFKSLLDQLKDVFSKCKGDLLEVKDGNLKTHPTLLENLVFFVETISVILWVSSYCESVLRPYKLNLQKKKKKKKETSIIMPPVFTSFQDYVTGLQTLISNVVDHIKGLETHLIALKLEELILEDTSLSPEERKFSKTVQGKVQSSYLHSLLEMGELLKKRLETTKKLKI
UniProt Q9P032: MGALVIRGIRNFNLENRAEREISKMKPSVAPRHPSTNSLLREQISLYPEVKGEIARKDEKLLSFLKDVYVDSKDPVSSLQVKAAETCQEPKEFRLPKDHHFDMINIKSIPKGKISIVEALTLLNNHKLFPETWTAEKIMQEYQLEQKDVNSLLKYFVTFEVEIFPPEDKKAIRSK
UniProt P62166, whole entry, looked up: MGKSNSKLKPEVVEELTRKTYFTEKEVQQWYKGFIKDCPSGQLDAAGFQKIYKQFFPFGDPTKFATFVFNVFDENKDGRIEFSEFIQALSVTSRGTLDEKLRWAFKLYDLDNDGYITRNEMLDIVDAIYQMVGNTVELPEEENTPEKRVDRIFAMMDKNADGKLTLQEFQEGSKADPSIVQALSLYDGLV
UniProt P54920: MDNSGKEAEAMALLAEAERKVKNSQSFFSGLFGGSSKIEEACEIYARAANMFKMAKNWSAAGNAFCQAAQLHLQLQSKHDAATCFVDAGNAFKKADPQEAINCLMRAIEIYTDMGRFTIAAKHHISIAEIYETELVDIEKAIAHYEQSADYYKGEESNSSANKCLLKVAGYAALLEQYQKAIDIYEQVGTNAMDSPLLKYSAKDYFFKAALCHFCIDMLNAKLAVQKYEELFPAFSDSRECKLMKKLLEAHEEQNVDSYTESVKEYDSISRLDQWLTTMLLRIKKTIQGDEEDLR
UniProt P49321, whole entry, looked up: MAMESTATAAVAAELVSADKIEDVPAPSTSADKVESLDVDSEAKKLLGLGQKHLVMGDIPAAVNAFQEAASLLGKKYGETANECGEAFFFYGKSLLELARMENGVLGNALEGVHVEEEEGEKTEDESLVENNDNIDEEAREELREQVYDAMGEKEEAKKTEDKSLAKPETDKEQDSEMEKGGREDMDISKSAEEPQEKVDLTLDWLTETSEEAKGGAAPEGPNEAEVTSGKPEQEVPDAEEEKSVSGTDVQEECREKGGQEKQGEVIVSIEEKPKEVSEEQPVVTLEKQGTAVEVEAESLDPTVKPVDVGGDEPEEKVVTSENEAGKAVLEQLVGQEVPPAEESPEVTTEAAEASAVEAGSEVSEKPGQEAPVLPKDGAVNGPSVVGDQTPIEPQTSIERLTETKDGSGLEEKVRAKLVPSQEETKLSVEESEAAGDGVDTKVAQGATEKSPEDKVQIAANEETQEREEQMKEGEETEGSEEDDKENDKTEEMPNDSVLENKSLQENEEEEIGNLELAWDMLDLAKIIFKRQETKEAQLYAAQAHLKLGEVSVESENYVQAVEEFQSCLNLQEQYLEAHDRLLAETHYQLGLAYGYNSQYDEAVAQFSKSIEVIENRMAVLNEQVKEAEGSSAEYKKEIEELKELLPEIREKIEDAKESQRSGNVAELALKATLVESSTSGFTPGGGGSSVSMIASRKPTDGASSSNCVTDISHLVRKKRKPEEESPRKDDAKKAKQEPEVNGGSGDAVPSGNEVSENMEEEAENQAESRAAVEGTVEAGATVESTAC
UniProt Q15843, whole entry, looked up: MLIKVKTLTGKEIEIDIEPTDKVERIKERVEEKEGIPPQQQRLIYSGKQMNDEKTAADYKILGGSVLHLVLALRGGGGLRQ
UniProt Q9BU61: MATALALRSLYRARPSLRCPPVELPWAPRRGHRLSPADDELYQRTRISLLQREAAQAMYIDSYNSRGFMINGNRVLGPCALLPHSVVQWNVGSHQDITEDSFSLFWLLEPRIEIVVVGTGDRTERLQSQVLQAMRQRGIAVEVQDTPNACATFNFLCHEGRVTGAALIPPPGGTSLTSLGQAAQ
UniProt Q9Y6M9, whole entry, looked up: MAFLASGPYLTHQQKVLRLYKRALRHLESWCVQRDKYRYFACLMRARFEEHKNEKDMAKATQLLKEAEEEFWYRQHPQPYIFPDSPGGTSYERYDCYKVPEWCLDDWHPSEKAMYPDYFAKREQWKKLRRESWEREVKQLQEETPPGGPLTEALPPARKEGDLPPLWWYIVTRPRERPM
UniProt O00217, whole entry, looked up: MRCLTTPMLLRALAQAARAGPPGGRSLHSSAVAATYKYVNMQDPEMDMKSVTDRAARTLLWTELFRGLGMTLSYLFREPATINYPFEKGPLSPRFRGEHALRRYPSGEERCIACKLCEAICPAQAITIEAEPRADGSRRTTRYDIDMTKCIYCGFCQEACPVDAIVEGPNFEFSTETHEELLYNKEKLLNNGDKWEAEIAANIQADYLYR
UniProt Q9Y375: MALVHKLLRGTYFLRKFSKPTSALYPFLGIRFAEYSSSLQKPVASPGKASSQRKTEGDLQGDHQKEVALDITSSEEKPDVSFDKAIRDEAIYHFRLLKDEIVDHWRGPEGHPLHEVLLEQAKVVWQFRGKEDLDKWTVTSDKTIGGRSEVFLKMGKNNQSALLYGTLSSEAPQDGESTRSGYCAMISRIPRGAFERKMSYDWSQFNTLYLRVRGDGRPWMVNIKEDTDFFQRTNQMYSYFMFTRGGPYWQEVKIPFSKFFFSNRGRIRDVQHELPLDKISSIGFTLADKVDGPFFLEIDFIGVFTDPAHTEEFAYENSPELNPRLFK
UniProt Q9GZZ1: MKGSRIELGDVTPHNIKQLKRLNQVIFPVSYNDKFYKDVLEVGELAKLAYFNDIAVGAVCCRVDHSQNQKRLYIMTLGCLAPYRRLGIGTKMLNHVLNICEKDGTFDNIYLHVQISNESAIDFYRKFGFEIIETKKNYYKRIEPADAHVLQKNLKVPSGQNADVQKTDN
UniProt P56181: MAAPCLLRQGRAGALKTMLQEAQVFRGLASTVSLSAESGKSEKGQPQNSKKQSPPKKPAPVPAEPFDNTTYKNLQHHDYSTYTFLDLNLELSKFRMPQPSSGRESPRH
UniProt Q9Y2A7: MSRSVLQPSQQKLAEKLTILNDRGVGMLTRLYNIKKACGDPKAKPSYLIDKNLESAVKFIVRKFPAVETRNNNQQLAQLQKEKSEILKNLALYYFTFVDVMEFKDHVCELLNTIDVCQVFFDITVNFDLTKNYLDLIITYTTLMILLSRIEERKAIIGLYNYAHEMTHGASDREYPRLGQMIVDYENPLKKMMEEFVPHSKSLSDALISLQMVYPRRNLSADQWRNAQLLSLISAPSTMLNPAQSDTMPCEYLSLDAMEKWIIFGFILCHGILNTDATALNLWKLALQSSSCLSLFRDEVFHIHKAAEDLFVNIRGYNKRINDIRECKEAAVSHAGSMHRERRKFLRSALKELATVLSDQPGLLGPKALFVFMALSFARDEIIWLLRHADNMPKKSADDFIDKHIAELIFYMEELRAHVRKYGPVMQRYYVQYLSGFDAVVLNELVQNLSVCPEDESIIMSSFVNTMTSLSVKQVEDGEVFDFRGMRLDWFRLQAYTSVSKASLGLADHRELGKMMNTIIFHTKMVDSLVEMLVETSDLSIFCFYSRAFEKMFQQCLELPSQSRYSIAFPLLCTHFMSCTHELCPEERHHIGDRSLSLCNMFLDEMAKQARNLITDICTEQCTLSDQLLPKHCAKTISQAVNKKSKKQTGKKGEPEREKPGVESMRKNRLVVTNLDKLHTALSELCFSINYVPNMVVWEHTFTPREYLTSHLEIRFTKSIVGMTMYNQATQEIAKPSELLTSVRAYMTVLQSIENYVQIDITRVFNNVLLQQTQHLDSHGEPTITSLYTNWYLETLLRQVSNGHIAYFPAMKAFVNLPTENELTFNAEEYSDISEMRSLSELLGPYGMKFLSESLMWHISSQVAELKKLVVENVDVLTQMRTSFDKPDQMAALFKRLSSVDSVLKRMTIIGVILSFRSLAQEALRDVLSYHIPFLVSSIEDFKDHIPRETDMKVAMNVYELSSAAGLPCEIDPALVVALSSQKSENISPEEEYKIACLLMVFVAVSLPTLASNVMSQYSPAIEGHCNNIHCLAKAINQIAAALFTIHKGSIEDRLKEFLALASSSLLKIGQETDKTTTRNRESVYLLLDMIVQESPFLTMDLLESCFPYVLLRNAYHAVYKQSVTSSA
UniProt Q6NZ67, whole entry, looked up: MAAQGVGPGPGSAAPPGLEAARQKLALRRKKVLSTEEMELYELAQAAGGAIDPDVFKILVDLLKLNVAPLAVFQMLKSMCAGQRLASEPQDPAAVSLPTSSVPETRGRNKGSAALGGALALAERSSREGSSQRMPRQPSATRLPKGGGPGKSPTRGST
UniProt Q8NHV4, whole entry, looked up: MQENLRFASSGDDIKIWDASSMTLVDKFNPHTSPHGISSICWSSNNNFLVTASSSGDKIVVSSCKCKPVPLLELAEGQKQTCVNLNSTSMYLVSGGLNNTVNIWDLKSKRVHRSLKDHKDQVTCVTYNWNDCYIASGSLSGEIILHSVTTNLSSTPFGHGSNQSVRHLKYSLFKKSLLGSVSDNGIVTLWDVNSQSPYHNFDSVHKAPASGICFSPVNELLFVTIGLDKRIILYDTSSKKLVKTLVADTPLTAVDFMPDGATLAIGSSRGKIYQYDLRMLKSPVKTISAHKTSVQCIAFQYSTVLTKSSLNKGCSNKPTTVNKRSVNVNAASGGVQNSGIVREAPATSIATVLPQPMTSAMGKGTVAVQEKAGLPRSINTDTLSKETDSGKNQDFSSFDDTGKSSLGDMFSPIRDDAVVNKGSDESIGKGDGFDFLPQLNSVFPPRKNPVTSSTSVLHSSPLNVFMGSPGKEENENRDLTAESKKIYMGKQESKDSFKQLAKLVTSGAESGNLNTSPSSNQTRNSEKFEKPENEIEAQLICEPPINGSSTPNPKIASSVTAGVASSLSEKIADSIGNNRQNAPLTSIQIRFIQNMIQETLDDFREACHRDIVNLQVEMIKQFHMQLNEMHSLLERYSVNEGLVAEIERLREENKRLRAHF
UniProt O95544: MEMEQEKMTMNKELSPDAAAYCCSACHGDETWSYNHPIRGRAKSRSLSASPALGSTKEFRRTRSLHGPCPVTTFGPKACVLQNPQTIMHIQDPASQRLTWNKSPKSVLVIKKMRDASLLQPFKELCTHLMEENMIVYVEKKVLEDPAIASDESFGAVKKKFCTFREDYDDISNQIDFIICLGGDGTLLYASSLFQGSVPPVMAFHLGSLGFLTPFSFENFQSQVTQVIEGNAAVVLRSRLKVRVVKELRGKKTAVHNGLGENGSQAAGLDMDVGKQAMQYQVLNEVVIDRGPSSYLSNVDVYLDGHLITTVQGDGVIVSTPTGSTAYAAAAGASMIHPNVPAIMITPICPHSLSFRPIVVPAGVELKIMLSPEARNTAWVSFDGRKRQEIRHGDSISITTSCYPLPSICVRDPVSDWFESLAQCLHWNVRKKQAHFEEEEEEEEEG
UniProt O95167, whole entry, looked up: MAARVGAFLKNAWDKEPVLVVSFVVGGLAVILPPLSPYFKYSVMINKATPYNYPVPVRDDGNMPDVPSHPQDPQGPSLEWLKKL

[1] = compound: Cc1cccc(CC(=O)N2CCc3c2ccc(-c2cn(C)c4ncnc(N)c24)c3F)n1
Outline: as §1

nilotinib = compound: Cc1cn(-c2cc(NC(=O)c3ccc(C)c(Nc4nccc(-c5cccnc5)n4)c3)cc(C(F)(F)F)c2)cn1 [nilotinib]
Outline: as §1

[2] = compound: Cc1nc(Nc2n[nH]c3c2CN(C(=O)N[C@H](CN(C)C)c2ccccc2)C3(C)C)c2sccc2n1
Outline: as §1

dasatinib = compound: Cc1nc(Nc2ncc(C(=O)Nc3c(C)cccc3Cl)s2)cc(N2CCN(CCO)CC2)n1 [dasatinib]
Outline: as §1

[3] = compound: Cc1ncc(-c2ccnc(Nc3ccc(S(C)(=O)=O)cc3)n2)n1C(C)C
Outline: as §1

[4] = compound: Cn1cc(-c2ccc3c(c2)CCN3C(=O)Cc2cccc(C(F)(F)F)c2)c2c(N)ncnc21
Outline: as §1

[5] = compound: Cn1cc(-c2ccc3nnc(C(F)(F)c4ccc5ncccc5c4)n3n2)cn1
Outline: as §1

tipifarnib = compound: Cn1cncc1[C@@](N)(c1ccc(Cl)cc1)c1ccc2c(c1)c(-c1cccc(Cl)c1)cc(=O)n2C [tipifarnib]
Outline: as §1

mubritinib = compound: FC(F)(F)c1ccc(/C=C/c2nc(COc3ccc(CCCCn4ccnn4)cc3)co2)cc1 [mubritinib]
Outline: as §1

Measured: log2 fold change

NEB isoform 3 (UniProt P20929)
inactive: bafetinib -0.072 | [1] 0.006 | nilotinib -0.043 | [2] 0.011 | dasatinib 0.198 | [3] -0.018 | [4] -0.096 | [5] 0.028

NAA15 (UniProt Q9BXJ9)
inactive: bafetinib -0.024 | [1] 0.016 | nilotinib -0.029 | [2] -0.024 | dasatinib -0.052 | [3] -0.02 | [4] 0.051 | [5] 0.01 | tipifarnib -0.022 | mubritinib -0.008

NDUFA9 (UniProt Q16795)
inactive: bafetinib -0.019 | [1] 0.033 | nilotinib -0.056 | [2] 0.005 | dasatinib -0.127 | [3] 0.012 | [4] 0.002 | [5] -0.007 | tipifarnib -0.033
active: mubritinib 0.223

NAGK isoform 2 (UniProt Q9UJ70)
inactive: bafetinib -0.048 | [1] -0.064 | nilotinib -0.049 | [2] 0.042 | dasatinib 0.079 | [3] 0.014 | [4] 0.022 | [5] -0.013 | tipifarnib -0.013 | mubritinib 0.029

NAA25 (UniProt Q14CX7)
inactive: bafetinib -0.029 | [1] 0.014 | nilotinib -0.021 | [2] -0.018 | dasatinib -0.056 | [3] -0.049 | [4] 0.111 | [5] 0.006 | tipifarnib -0.002 | mubritinib 0.004

NDUFAF4 (UniProt Q9P032)
inactive: bafetinib -0.128 | [1] -0.01 | nilotinib 0.012 | [2] -0.009 | dasatinib -0.084 | [3] -0.012 | [4] 0.064 | [5] 0.023 | tipifarnib 0.028 | mubritinib 0.035

NAGLU (UniProt P54802)
inactive: bafetinib -0.026 | [1] -0.027 | nilotinib -0.015 | [2] 0.028 | dasatinib -0.023 | [3] 0.023 | [4] 0.165 | [5] -0.004 | tipifarnib 0.038 | mubritinib 0.024

NCS1 (UniProt P62166)
inactive: bafetinib -0.088 | [1] 0.043 | nilotinib -0.008 | [2] 0.018 | dasatinib -0.059 | [3] -0.018 | [4] -0.011 | [5] -0.046 | tipifarnib 0.032 | mubritinib -0.002

NAPA (UniProt P54920)
inactive: bafetinib -0.009 | [1] 0.022 | nilotinib 0.002 | [2] -0.044 | dasatinib -0.018 | [3] 0.041 | [4] 0.039 | [5] 0 | tipifarnib -0.012 | mubritinib 0.025

NDUFB4 (UniProt O95168)
inactive: bafetinib -0.137 | [1] 0.014 | nilotinib 0.034 | [2] -0.017 | dasatinib -0.029 | [3] 0.005 | [4] 0.092 | [5] 0.031 | tipifarnib 0.064 | mubritinib 0.044

NAE1 (UniProt Q13564)
inactive: bafetinib -0.006 | [1] 0.039 | nilotinib -0.066 | [2] -0.025 | dasatinib -0.065 | [3] -0.019 | [4] 0.056 | [5] 0.007 | tipifarnib -0.054 | mubritinib 0.14

NASP (UniProt P49321)
inactive: bafetinib -0.036 | [1] 0.011 | nilotinib -0.013 | [2] -0.032 | dasatinib -0.027 | [3] 0 | [4] -0.02 | [5] 0.009 | tipifarnib -0.026 | mubritinib 0.026

NEDD8 (UniProt Q15843)
inactive: bafetinib -0.029 | [1] -0.118 | nilotinib 0.053 | [2] 0.009 | dasatinib 0.091 | [3] -0.034 | [4] 0.131 | [5] 0.064 | tipifarnib -0.051 | mubritinib 0.027

NDUFAF3 (UniProt Q9BU61)
inactive: bafetinib -0.11 | [1] -0.009 | nilotinib -0.014 | [2] 0.013 | dasatinib -0.034 | [3] -0.032 | [4] 0.156 | [5] 0.011 | tipifarnib -0.018 | mubritinib 0.08

NAMPT (UniProt P43490)
inactive: bafetinib -0.026 | [1] -0.039 | nilotinib -0.01 | [2] 0.009 | dasatinib 0.023 | [3] 0 | [4] 0 | [5] 0.023 | tipifarnib 0.047 | mubritinib 0.033

NDUFV2 (UniProt P19404)
inactive: bafetinib -0.035 | [1] -0.024 | nilotinib 0.039 | [2] -0.026 | dasatinib -0.017 | [3] -0.047 | [4] 0.029 | [5] 0.028 | tipifarnib 0.087 | mubritinib 0.052

NAF1 (UniProt Q96HR8)
inactive: bafetinib -0.032 | [1] -0.036 | nilotinib -0.006 | [2] 0.066 | dasatinib 0.108 | [3] 0.039 | [4] 0.026 | [5] -0.019 | tipifarnib -0.039 | mubritinib 0.014

NDUFB9 (UniProt Q9Y6M9)
inactive: bafetinib -0.109 | [1] -0.035 | nilotinib 0.01 | [2] 0.007 | dasatinib -0.071 | [3] -0.023 | [4] 0.052 | [5] 0.051 | tipifarnib -0.035 | mubritinib 0.019

NDUFS8 (UniProt O00217)
inactive: bafetinib -0.055 | [1] 0.047 | nilotinib -0.036 | [2] -0.002 | dasatinib -0.1 | [3] -0.047 | [4] 0.1 | [5] 0.055 | tipifarnib -0.053 | mubritinib 0.111

NDUFAF1 (UniProt Q9Y375)
inactive: bafetinib -0.078 | [1] 0.008 | nilotinib -0.022 | [2] 0.006 | dasatinib -0.029 | [3] -0.034 | [4] 0.013 | [5] 0.019 | tipifarnib 0.039 | mubritinib -0.012

NCBP1 (UniProt Q09161)
inactive: bafetinib -0.031 | [1] 0.003 | nilotinib -0.036 | [2] 0.016 | dasatinib -0.002 | [3] 0.074 | [4] -0.012 | [5] -0.034 | tipifarnib -0.02 | mubritinib -0.008

NAA50 (UniProt Q9GZZ1)
inactive: bafetinib -0.042 | [1] 0.06 | nilotinib -0.003 | [2] -0.055 | dasatinib -0.011 | [3] 0.033 | [4] 0.036 | [5] 0.011 | tipifarnib -0.053 | mubritinib -0.079

NDUFV3 isoform 2 (UniProt P56181)
inactive: bafetinib -0.058 | [1] -0.104 | nilotinib 0.038 | [2] 0.054 | dasatinib 0.041 | [3] -0.092 | [4] -0.016 | [5] -0.025 | tipifarnib 0.109 | mubritinib -0.036

NCKAP1 isoform 2 (UniProt Q9Y2A7)
inactive: bafetinib -0.028 | [1] 0.08 | nilotinib -0.016 | [2] -0.045 | dasatinib -0.096 | [3] -0.04 | [4] 0.04 | [5] -0.004 | tipifarnib -0.005 | mubritinib 0.002

MZT2B (UniProt Q6NZ67)
inactive: bafetinib 0.023 | [1] 0 | nilotinib 0.082 | [2] -0.045 | dasatinib 0.055 | [3] 0.037 | [4] 0.009 | [5] -0.026 | tipifarnib 0.043 | mubritinib 0.029

NCALD (UniProt P61601)
inactive: bafetinib -0.026 | [1] 0.079 | nilotinib 0.011 | [2] 0.046 | dasatinib -0.053 | [3] -0.014 | [4] -0.024 | [5] 0.021 | tipifarnib -0.026 | mubritinib 0.048

NDUFA7 (UniProt M0R0N0)
inactive: bafetinib -0.052

NEDD1 isoform 3 (UniProt Q8NHV4)
inactive: bafetinib 0.025 | [1] -0.013 | nilotinib 0.061 | [2] 0.055 | dasatinib -0.015 | [3] -0.137 | [4] 0.019 | [5] -0.003 | tipifarnib 0.072 | mubritinib 0.048

NADK (UniProt O95544)
inactive: bafetinib -0.033 | [1] -0.012 | nilotinib 0.018 | [2] -0.006 | dasatinib 0.049 | [3] -0.023 | [4] 0.03 | [5] 0.001 | tipifarnib 0.008 | mubritinib 0.031

NDUFA3 (UniProt O95167)
inactive: bafetinib -0.163 | [1] -0.068 | nilotinib -0.043 | [2] -0.001 | dasatinib -0.055 | [3] -0.095 | [4] 0.117 | [5] 0.174 | tipifarnib 0.124 | mubritinib 0.12
